{"source": "patent US10208012B2", "about": "“Compounds for treating inflammatory and hyperproliferative diseases” (Board of Regents, The University of Texas System, priority 2013, dated 2019)", "tested_on": "MCL cells (Mino, DB, Z-138, JMP-1), DLBCL cells (MS, DB, LR, LP) and follicular lymphoma cells (CJ)", "assay": "Comparison with natural curcumin in NHL subtypes, thymidine incorporation, 96 hrs", "type": "cell-based", "settings": "four MCL, four LBCL and one follicular lymphoma cell line", "note": "Some entries share one result that the patent states for a list of compounds."}
{"molecule": "N#Cc1cccc(/C=C2\\CSC/C(=C\\c3cccc(C#N)c3)C2=O)c1", "note": "[Turmerax 1, 3,5-bis[(3-cyanophenyl)methylene]-tetrahydrothiopyran-4-one]", "values": [{"measurement": "IC50 lower than IC50 of wild type curcumin", "result": "50-150 fold"}]}
